## Primary screen of a compound library

Values are the deposited “Percent Effect”, in %.
The controls that fix the scale are not given in the record; negative values are as filed.
This is an unselected part of the compounds tested.

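Growth of Mycobacterium tuberculosis over 4 days (cholesterol / DPPC medium with tyloxapol); the read-out is not stated. Tested at 500 µM. Higher reads as more growth inhibition (inferred: compounds with an IC50 in retests scored well above the rest). About 18,000 compounds were tested under these conditions; 5% (about 900) showed 50% or more at least once.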

compound | percent effect
CCCc1nc(C(=O)NC2CCCCNC2=O)cs1 (stereo not drawn) | 4.06
NC[C@@H]1CC(=O)N(C2CC2)[C@H]1c1cccnc1 | -2.585
COc1ccc(C)cc1C(C)O (stereo not drawn) | 1.31
CN(C)C(=O)c1csc2c1CCCC2 | 50.42
COC(=O)C1(N)CCSC1 (stereo not drawn) | -0.08374
O=C(C1CC1)N1CCC(Oc2cccnc2)C1 (stereo not drawn) | 25
OC1(Cc2ccccc2F)CCNC1 (stereo not drawn) | -20.72
CC(N)c1coc2ccccc12 (stereo not drawn) | 13.27
O=C(COc1cccc(Cl)c1)NCC1CCS(=O)(=O)C1 (stereo not drawn) | 1.303
CN(C)S(=O)(=O)c1ccc2c(c1)OCCCO2 | 0.03753
Cc1cc(S(N)(=O)=O)c(C)o1 | -15.31
COc1ccc(OCC(O)CN2CCN(C)CC2)cc1 (stereo not drawn) | 4.288
Cc1ccc2nc(CN3CCOCS3(=O)=O)cn2c1 | 8.285
O=C(Cn1ccnn1)Nc1ccncc1F | -7.917
O=C(c1cccc(C(F)(F)F)c1)N1CCC(O)CC1 | 17.19
COc1ccc(CCS(=O)(=O)c2nccn2C)cc1 | 27.43
Cc1nc(C(=O)NCCN2CCCCC2C)n(C)n1 (stereo not drawn) | -23.14
Cn1c(=O)ccn(CC(=O)Nc2ncccc2O)c1=O | -3.483
N#Cc1cccc([C@H]2C[C@H](N)C2)c1 | 8.309
c1cnn(CC2CCNCC2)c1 | -2.643
Cc1nn(CCNCCS(C)(=O)=O)c(C)c1Br | -4.624
CN(Cc1cnc(N(C)C)nc1)Cc1ccccn1 | 10.93
CCCNc1nnc(S(=O)(=O)CCCC#N)s1 | 13.94
NS(=O)(=O)NCC1CCCN(CCC2CCCC2)C1 (stereo not drawn) | 1.786
C=C(C)CNC(C(=O)N1CCOCC1)C(C)C (stereo not drawn) | 4.479
NCc1ccc2c(c1)CCC2 | 40.21
N#Cc1ccc(NCCNC(=O)c2ccc(Cl)s2)nc1 | -6.903
NC(=O)COC(=O)c1cccnc1-n1cncn1 | -2.576
CN(Cc1cnn(C)c1)C(=O)C1CCCN(C(N)=O)C1 (stereo not drawn) | 4.83
N#C[C@@H]1CN2CCOC[C@H]2CO1 | 10.31
COC(=O)CN1CCN(Cc2ccccc2)CC1 | 9.926
CNC(=O)C(NC(=O)c1cnccn1)c1ccccc1 (stereo not drawn) | -11.02
CCCn1nccc1C(=O)N1CCn2cncc2C1 | -4.476
CNC(C)c1ccccc1N1CCCS1(=O)=O (stereo not drawn) | -1.253
CCOCCC(=O)N1CCN(C(C)c2ccsc2)CC1 (stereo not drawn) | 29.94
NC1CCN(Cc2ccccc2)C1=O (stereo not drawn) | -34.45
CCO[C@H]1CN(c2ccc(C(N)=O)cn2)C[C@@H]1O | 5.33
CC(=O)N(C)CC(=O)N1CCSCC1 | -14.76
O=C(c1cc(Br)c[nH]1)N1CCCCC1 | 13.75
CN1C(=O)C(C)(C)c2cc(NC(=O)C3CC3)ccc21 | 36.98
CC(CN1CCOCC1)NS(=O)(=O)c1ncn(C)c1Cl (stereo not drawn) | -13.97
CN(Cc1nnc[nH]1)C(=O)CCSc1ccccc1Cl | 4.325
Cc1cc(Cn2cc(S(=O)(=O)N(C)C)ccc2=O)no1 | 10.49
COc1ccc(CNC(=O)C2=COCCO2)cc1OC | 32.85
NC(=O)c1sccc1NC(=O)c1ncccc1Br | 0.2463
CCC1CN(Cc2ccno2)CCS1 (stereo not drawn) | -19.15

For reference, 5 entries once more:

- NS(=O)(=O)NCC1CCCN(CCC2CCCC2)C1 (stereo not drawn) | 1.786%
- CN(Cc1cnc(N(C)C)nc1)Cc1ccccn1 | 10.93%
- O=C(c1cc(Br)c[nH]1)N1CCCCC1 | 13.75%
- N#C[C@@H]1CN2CCOC[C@H]2CO1 | 10.31%
- O=C(COc1cccc(Cl)c1)NCC1CCS(=O)(=O)C1 (stereo not drawn) | 1.303%

The values are deposited in ChEMBL (CHEMBL3988442, “University of Dundee, Small-Polar-MMV Screening Library” (2021)).